# In PMC7819943, “Rice protein-binding microarrays: a tool to detect cis-acting elements near promoter regions in rice”:
# The list shows a part of the results.
# Molecular target: T1, OsSMF1 (Oryza sativa, UniProt Q6ZLB0 1-436)
# T1 sequence: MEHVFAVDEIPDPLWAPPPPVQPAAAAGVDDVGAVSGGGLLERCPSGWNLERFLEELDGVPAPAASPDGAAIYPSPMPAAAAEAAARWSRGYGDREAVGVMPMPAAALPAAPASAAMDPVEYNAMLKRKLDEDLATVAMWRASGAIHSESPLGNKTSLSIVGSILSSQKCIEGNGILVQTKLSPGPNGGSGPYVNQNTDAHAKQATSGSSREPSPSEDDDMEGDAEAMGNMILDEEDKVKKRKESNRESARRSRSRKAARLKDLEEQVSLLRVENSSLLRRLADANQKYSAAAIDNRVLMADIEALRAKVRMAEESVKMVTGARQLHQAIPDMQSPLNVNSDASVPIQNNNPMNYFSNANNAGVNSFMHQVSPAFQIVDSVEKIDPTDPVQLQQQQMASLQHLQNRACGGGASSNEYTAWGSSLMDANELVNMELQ
# Test: protein-binding microarray (RPBM); PBS, 2% BSA, 51.3 ng/ul salmon testes DNA, 50 uM zinc acetate, 200 nM TF, 25 C, 1 h; high values mean tight binding
# Conditions: protein: recombinant; tags: N-terminal polyhistidine and DsRed monomer fusion (pET32a); chain copies: 2; label: CyDye5-dUTP incorporated in the synthesized complementary strand; 3' TTTTT single-stranded linker to array surface; dsDNA, one strand shown
# Procedure, shortened: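 Transcription factors, each fused N-terminally to a polyhistidine tag and DsRed, were expressed in E. coli BL21-CodonPlus and purified on Ni–NTA. A custom Agilent array was made double-stranded by primer extension with Cy5-dUTP and blocked with 2% BSA. It was incubated with 200 nM protein in PBS, 2% BSA, salmon testes DNA and 50 µM zinc acetate at 25 °C for 1 h, then washed. The binding signal is per-feature fluorescence intensity (arbitrary units) read on an Axon 4000B scanner.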
row,Sequence,binding signal
1,CTCTCTCTGCTACAGCTAGCCTACGCGGTTGACATGTGGGCGGAGTCACCTAGTGCAG,3400 fluorescence intensity (a.u.)
2,ACAGCCAACCATGAGACAACACATTGGTACCCATGGCTGTCGGAGTCACCTAGTGCAG,3430 fluorescence intensity (a.u.)
3,GTAGCCCACACGTGTTATCGTTGCCAAGCTTGCCACCCAACGGAGTCACCTAGTGCAG,7320 fluorescence intensity (a.u.)
4,CCTAACAACTACAATAATCGGAGTTGGCATCTTGTAATTTCGGAGTCACCTAGTGCAG,3750 fluorescence intensity (a.u.)
5,TTATTCCACTCTCCAAAACGTCATTACTGATTTGCTTTTCCGGAGTCACCTAGTGCAG,3270 fluorescence intensity (a.u.)
6,TTCAACCGGAATGCGCTCAGACGTGTGAGTGTACTTGTGTCGGAGTCACCTAGTGCAG,3270 fluorescence intensity (a.u.)
7,CTCAAACTCAATTATTCAAAGTGAAACCGCCAAACCGGTGCGGAGTCACCTAGTGCAG,3250 fluorescence intensity (a.u.)
8,GGAATGTATCTGGCCGGGGCTGACGTGCCAACTCCAGGAGCGGAGTCACCTAGTGCAG,10300 fluorescence intensity (a.u.)
9,TCCCGTGCGCCGCCGCCTCGTCGTTCCATCTAAGTCGCGACGGAGTCACCTAGTGCAG,3560 fluorescence intensity (a.u.)
10,TGCGGCCGCCGGCGCCGGTGACGAGGACGGTGGGGCGGGCCGGAGTCACCTAGTGCAG,5220 fluorescence intensity (a.u.)
11,GTTTCTTGCTTTCTTGGCCATGGTTTATGAATGGATTCTGCGGAGTCACCTAGTGCAG,3440 fluorescence intensity (a.u.)
12,TCCATATGGATGACGCAATAGAAATCGAAAGTGAAACAAACGGAGTCACCTAGTGCAG,5240 fluorescence intensity (a.u.)
13,TAGGATGAAATTAGCCCATCAGGTATTACGTGTGGGCCGTCGGAGTCACCTAGTGCAG,3400 fluorescence intensity (a.u.)
14,GCAAATCCCGCGCACATGACGCGCTGATGAGTGATGACACCGGAGTCACCTAGTGCAG,3170 fluorescence intensity (a.u.)
15,GCCCGCGAGTCCACGACGCCCACCACACCGCACACACAGACGGAGTCACCTAGTGCAG,3880 fluorescence intensity (a.u.)
16,TAACTGTATCTGTGTTATGAAACTTTGAATGACATCACTGCGGAGTCACCTAGTGCAG,4310 fluorescence intensity (a.u.)
17,GACGTGGAGCAGCCGCCGGTTGTTGCTCTTGGCCCAAGTGCGGAGTCACCTAGTGCAG,14900 fluorescence intensity (a.u.)
18,GGCCGTATACGTGCCTCGGCCTCAGTCTTAGCTGAACTGGCGGAGTCACCTAGTGCAG,25000 fluorescence intensity (a.u.)
19,AATAGTCTGCTATTGTACCTGCTCTGAACTGTTGCCCATTCGGAGTCACCTAGTGCAG,3240 fluorescence intensity (a.u.)
20,TAGCGGCCACATGCTTAAGAAGTCACGTTGCACCGTGCCACGGAGTCACCTAGTGCAG,3570 fluorescence intensity (a.u.)
21,CGAATTCCTCGAGTCCACCGTGGACCGGGCCCATGCACCGCGGAGTCACCTAGTGCAG,5490 fluorescence intensity (a.u.)

# Fetched one by one from the list above, 2 records:
row,Sequence,binding signal
8,GGAATGTATCTGGCCGGGGCTGACGTGCCAACTCCAGGAGCGGAGTCACCTAGTGCAG,10300 fluorescence intensity (a.u.)
5,TTATTCCACTCTCCAAAACGTCATTACTGATTTGCTTTTCCGGAGTCACCTAGTGCAG,3270 fluorescence intensity (a.u.)

# (list continues)

row,Sequence,binding signal
1,GATAATGCATATGATTGACGTCGTGTTTATCTGATGTTAGCGGAGTCACCTAGTGCAG,3710 fluorescence intensity (a.u.)
2,GTTAAATCTAGTATGAAACATATTGAGTCATCTATCATAGCGGAGTCACCTAGTGCAG,4620 fluorescence intensity (a.u.)
3,AATAAGCCCTAGTGACCTAGGACGACGGAGACTCCACCCACGGAGTCACCTAGTGCAG,3390 fluorescence intensity (a.u.)
4,AATATATGATGAAAAGGTAAATGATGACGTGGAATAATAACGGAGTCACCTAGTGCAG,9040 fluorescence intensity (a.u.)
5,TGTTTCAAGCTAAGACTGAGCTAGTTTCATGTTTCAAACACGGAGTCACCTAGTGCAG,37700 fluorescence intensity (a.u.)
6,TTCCCTTCTCACCACCTCCAAGTACGCTTTGCGGGACACTCGGAGTCACCTAGTGCAG,4480 fluorescence intensity (a.u.)
7,TCTCTGCTGGAATCTGAAGAAAATCGTCATCTGAATCACGCGGAGTCACCTAGTGCAG,3610 fluorescence intensity (a.u.)
8,CTCGTTCACTGAGACTCAGAGAGTGAGGTGACTTGAGGCGCGGAGTCACCTAGTGCAG,3770 fluorescence intensity (a.u.)
9,GATACGCAAAACGAGGTGAGTCATTAGCGTATAATTAATTCGGAGTCACCTAGTGCAG,8280 fluorescence intensity (a.u.)
10,CCACGCGCCGCAACTAGAAAAGTGATGATTCGGAGGTGGACGGAGTCACCTAGTGCAG,24400 fluorescence intensity (a.u.)
11,AGGGCCAGCCACGCACGCACGCACGCCACCGCGCTCCATTCGGAGTCACCTAGTGCAG,7130 fluorescence intensity (a.u.)
12,ACTAGTGAATTTCTGGGCGTGACAGTGATCCACATGTCAACGGAGTCACCTAGTGCAG,4730 fluorescence intensity (a.u.)
13,GTCACGGCTGCTTTATCGAGCCGTCCCGTGCCGTGCCGGACGGAGTCACCTAGTGCAG,17000 fluorescence intensity (a.u.)
14,TGCTGATGTTGCTGCTAAAATTGCACCATTGTTGTGTAACCGGAGTCACCTAGTGCAG,40700 fluorescence intensity (a.u.)
15,AAAGAAAACATTAGAGAGTCAAAACACAAATTAACCCGGCCGGAGTCACCTAGTGCAG,32300 fluorescence intensity (a.u.)
16,AGAGGGAGGAGTTGAGTAACTGACACGTGGCCTAAATTTTCGGAGTCACCTAGTGCAG,14500 fluorescence intensity (a.u.)
17,ATGAAGAGGACGCATGCAAAACGCGCCAACTCCCAACTGCCGGAGTCACCTAGTGCAG,25800 fluorescence intensity (a.u.)
18,CCCTACTCCGGCGGTGGGTGACGTCACTTTATTTGGATTTCGGAGTCACCTAGTGCAG,23500 fluorescence intensity (a.u.)
19,ACAAACCATTTTGCTGTTTGTTTACACGTCAAACTCGTCGCGGAGTCACCTAGTGCAG,6650 fluorescence intensity (a.u.)
20,TCAGCGGCAGCCCACCCGACTGGGCCGGTCATCGGCGCCACGGAGTCACCTAGTGCAG,3470 fluorescence intensity (a.u.)
21,AACCTCCATCTCCCGCCCAGTGCCGCCGCGCCACGTCACCCGGAGTCACCTAGTGCAG,39100 fluorescence intensity (a.u.)

# Quoted from the listing.
# binding signal with GTTTCTTGCTTTCTTGGCCATGGTTTATGAATGGATTCTGCGGAGTCACCTAGTGCAG is entered as 3440 fluorescence intensity (a.u.)
# binding signal with ACAGCCAACCATGAGACAACACATTGGTACCCATGGCTGTCGGAGTCACCTAGTGCAG is entered as 3430 fluorescence intensity (a.u.)
